Source: publication PMC8316469
These are yes or no findings as the source states them, for the method shown. For some of these results: Binding seen in cells or lysates may run through a third protein. Some entries that bind do so weakly or less than the wild type. For some of these results: Sequences can lack the tags named with a protein. Blank lines part the entries; values can stand above or below the binder they belong to.

By UniProt entry, the sequences of proteins in these tests, tags left out. Where a name states a change or a piece, a line headed by the entry shows the natural chain unless it says otherwise. Residues count along the entry.
UniProt Q9EP73, residues 19-290: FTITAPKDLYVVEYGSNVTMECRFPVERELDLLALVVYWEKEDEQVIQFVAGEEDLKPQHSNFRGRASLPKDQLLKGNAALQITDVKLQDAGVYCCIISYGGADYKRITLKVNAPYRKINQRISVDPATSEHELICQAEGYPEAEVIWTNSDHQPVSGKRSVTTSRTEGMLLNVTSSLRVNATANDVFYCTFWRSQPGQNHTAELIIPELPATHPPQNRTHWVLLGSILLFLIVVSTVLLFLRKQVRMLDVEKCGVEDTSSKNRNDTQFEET
UniProt Q9NZQ7: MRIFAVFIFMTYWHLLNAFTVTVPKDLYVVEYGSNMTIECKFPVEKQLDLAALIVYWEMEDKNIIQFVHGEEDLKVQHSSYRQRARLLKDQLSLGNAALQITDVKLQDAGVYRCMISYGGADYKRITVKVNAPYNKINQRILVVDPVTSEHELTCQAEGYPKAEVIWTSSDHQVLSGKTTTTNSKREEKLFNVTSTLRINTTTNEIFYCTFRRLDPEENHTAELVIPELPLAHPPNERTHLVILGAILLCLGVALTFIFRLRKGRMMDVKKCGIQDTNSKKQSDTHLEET
programmed cell death 1 ligand 1 (PD-L1), human, endogenous (human (endogenous in SW1990 and CFPAC-1)): residues 19-290 of Q9NZQ7

Legend:
[1] = target: programmed cell death 1 ligand 1 (PD-L1), mouse, endogenous (mouse (endogenous in KPC)) (UniProt Q9EP73); experiment: co-IP; endogenous proteins; cleared lysates of SW1990, KPC and CFPAC-1 cells in IP/Western lysis buffer with phosphatase and protease inhibitors; primary antibody 4-6 h, protein A or G Dynabeads 2-4 h at 4 °C; Western blot
[2] = target: programmed cell death 1 ligand 1 (PD-L1), mouse, endogenous (mouse (endogenous in KPC)) (UniProt Q9EP73); experiment: proximity ligation; Duo-link assay in KPC cells with anti-NEK2 and anti-PD-L1 as primary antibodies; confocal microscopy
[3] = target: programmed cell death 1 ligand 1 (PD-L1), human, endogenous (human (endogenous in SW1990 and CFPAC-1)) (UniProt Q9NZQ7); experiment: co-IP; endogenous proteins; cleared lysates of SW1990, KPC and CFPAC-1 cells in IP/Western lysis buffer with phosphatase and protease inhibitors; primary antibody 4-6 h, protein A or G Dynabeads 2-4 h at 4 °C; Western blot
[4] = target: GST-PD-L1 (commercial recombinant PD-L1/GST) (human) (UniProt Q9NZQ7); experiment: pull-down; GST-PD-L1 (or GST) on glutathione beads, NEK2-His as prey; Pierce GST Protein Interaction Pull-Down Kit; commercial recombinant proteins; both purified

B1: never in mitosis gene A-related kinase 2 (NEK2), mouse, endogenous (protein, UniProt O35942 1-443)
chain: MPSRVEDYEVLHSIGTGSYGRCQKIRRKSDGKILVWKELDYGSMTEVEKQMLVSEVNLLRELKHPNIVSYYDRIIDRTNTTLYIVMEYCEGGDLASVISKGTKDRQYLEEEFVLRVMTQLTLALKECHRRSDGGHTVLHRDLKPANVFLDSKHNVKLGDFGLARILNHDTSFAKTFVGTPYYMSPEQMSCLSYNEKSDIWSLGCLLYELCALMPPFTAFNQKELAGKIREGRFRRIPYRYSDGLNDLITRMLNLKDYHRPSVEEILESPLIADLVAEEQRRNLERRGRRSGEPSKLPDSSPVLSELKLKERQLQDREQALRAREDILEQKERELCIRERLAEDKLARAESLMKNYSLLKEHRLLCLAGGPELDLPSSAMKKKVHFHGESKENTARSENSESYLAKSKCRDLKKRLHAAQLRAQALADIEKNYQLKSRQILGMR
binding [1]: binds | binding [2]: binds

B2: never in mitosis gene A-related kinase 2 (NEK2), human, endogenous (protein, UniProt P51955 1-445)
chain: MPSRAEDYEVLYTIGTGSYGRCQKIRRKSDGKILVWKELDYGSMTEAEKQMLVSEVNLLRELKHPNIVRYYDRIIDRTNTTLYIVMEYCEGGDLASVITKGTKERQYLDEEFVLRVMTQLTLALKECHRRSDGGHTVLHRDLKPANVFLDGKQNVKLGDFGLARILNHDTSFAKTFVGTPYYMSPEQMNRMSYNEKSDIWSLGCLLYELCALMPPFTAFSQKELAGKIREGKFRRIPYRYSDELNEIITRMLNLKDYHRPSVEEILENPLIADLVADEQRRNLERRGRQLGEPEKSQDSSPVLSELKLKEIQLQERERALKAREERLEQKEQELCVRERLAEDKLARAENLLKNYSLLKERKFLSLASNPELLNLPSSVIKKKVHFSGESKENIMRSENSESQLTSKSKCKDLKKRLHAAQLRAQALSDIEKNYQLKSRQILGMR
binding [3]: binds

binding [4]: binds
B3: NEK2-His (commercial recombinant) (protein, UniProt P51955 1-445)
chain: MPSRAEDYEVLYTIGTGSYGRCQKIRRKSDGKILVWKELDYGSMTEAEKQMLVSEVNLLRELKHPNIVRYYDRIIDRTNTTLYIVMEYCEGGDLASVITKGTKERQYLDEEFVLRVMTQLTLALKECHRRSDGGHTVLHRDLKPANVFLDGKQNVKLGDFGLARILNHDTSFAKTFVGTPYYMSPEQMNRMSYNEKSDIWSLGCLLYELCALMPPFTAFSQKELAGKIREGKFRRIPYRYSDELNEIITRMLNLKDYHRPSVEEILENPLIADLVADEQRRNLERRGRQLGEPEKSQDSSPVLSELKLKEIQLQERERALKAREERLEQKEQELCVRERLAEDKLARAENLLKNYSLLKERKFLSLASNPELLNLPSSVIKKKVHFSGESKENIMRSENSESQLTSKSKCKDLKKRLHAAQLRAQALSDIEKNYQLKSRQILGMR
